Reference: PMC11959843

Biological target: Rat HA-SMYD5, from lentivirus vector pCMV-Smyd5 (rat)-HA-Neo (rat)
Test: affinity purification with mass spectrometry; rat FLS expressing HA-SMYD5 lysed in IP-RIPA buffer; anti-HA mouse mAb and Protein A/G PLUS-Agarose; SDS-PAGE, the HA-SMYD5 band and a nearby region (~42 kd) excised for mass spectrometry

B1: HK2 (endogenous, rat fibroblast-like synoviocytes) (enzyme, UniProt P27881 1-917)
chain: MIASHMIACLFTELNQNQVQKVDQFLYHMRLSDETLLEISRRFRKEMEKGLGATTHPTAAVKMLPTFVRSTPDGTEHGEFLALDLGGTNFRVLRVRVTDNGLQRVEMENQIYAIPEDIMRGSGTQLFDHIAECLANFMDKLQIKEKKLPLGFTFSFPCHQTKLDESFLVSWTKGFKSSGVEGRDVVDLIRKAIQRRGDFDIDIVAVVNDTVGTMMTCGYDDQNCEIGLIVGTGSNACYMEEMRHIDMVEGDEGRMCINMEWGAFGDDGTLNDIRTEFDREIDMGSLNPGKQLFEKMISGMYMGELVRLILVKMAKAELLFQGKLSPELLTTGSFETKDVSDIEEDKDGIEKAYQILMRLGLNPLQEDCVATHRICQIVSTRSASLCAATLAAVLWRIKENKGEERLRSTIGVDGSVYKKHPHFAKRLHKAVRRLVPDCDVRFLRSEDGSGKGAAMVTAVAYRLADQHRARQKTLESLKLSHEQLLEVKRRMKVEMEQGLSKETHAVAPVKMLPTYVCATPDGTEKGDFLALDLGGTNFRVLLVRVRNGKRRGVEMHNKIYSIPQEVMHGTGEELFDHIVQCIADFLEYMGMKGVSLPLGFTFSFPCQQNSLDQSILLKWTKGFKASGCEGEDVVTLLKEAIHRREEFDLDVVAVVNDTVGTMMTCGYEDPHCEVGLIVGTGSNACYMEEMRNVELVDGEEGRMCVNMEWGAFGDNGCLDDLRTVFDVAVDELSLNPGKQRFEKMISGMYLGEIVRNILIDFTKRGLLFRGRISERLKTRGIFETKFLSQIESDCLALLQVRAILRHLGLESTCDDSIIVKEVCTVVARRAAQLCGAGMAAVVDKIRENRGLDNLKVTVGVDGTLYKLHPHFAKVMHETVRDLAPKCDVSFLESEDGSGKGAALITAVACRIREAGQR
binding: binds

Results are given in words; binding and its absence hold for the method and conditions named. Binding seen in cells or lysates may run through a third protein. A yes stands for co-enrichment or nearness to the bait. Other partners may have been found.
